Measured values from PubChem BioAssay AID2685 (National Center for Advancing Translational Sciences (NCATS), 2010).
The other results are listed elsewhere or left out. Shown are side measurements of this screen, not its main read-out; they come without a call. The list favours compounds with an active or inconclusive main result. Words in brackets tell the shape of the fitted curve; partial curves, single points and poor fits give uncertain potencies.

Assay: qHTS Assay for Lipid Storage Modulators in Drosophila S3 Cells;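 on cell number change: cells counted by Cell Tracker Red CMTPX staining in the red channel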
Conditions: BODIPY lipid droplet fluorescence, 18-24 h; for cell number change: measured here: cell count max response, cells fed with added oleic acid
In short: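 Drosophila S3 cells loaded with oleic acid (400 uM, as added) and compounds at several concentrations; lipid droplets imaged by 488-nm laser-scanning cytometry, 500–530 nm intensity and object ratio to cell channel. Percent activity normalized to 20 uM Triacsin C.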

[1] = measured here: cell number channel AC50, cells fed with added oleic acid
[2] = measured here: lipid fluorescence (Fed channel) AC50, cells fed with added oleic acid

Row | Structure (SMILES) | cell number change [%] | AC50 [1] | AC50 [2]
1 | Cc1nc2scc(C)n2c(=O)c1S(=O)(=O)N1CCN(c2cccc(C(F)(F)F)c2)CC1 | 41.3 | 29.1 µM [rising, single point] | 29.1 µM [rising, single point]
2 | COC(=O)CCCC1=CC2=C(c3ccccc3)C(=O)C(C)(OC(=O)C3CCCC3)C(=O)C2=CN1Cc1ccc(OC)cc1 (stereo unspecified) | -19.3 |  | 
3 | CCOc1cc(C(=O)Nc2ccc([N+](=O)[O-])cn2)cc(OCC)c1OCC | -62.4 | 29.1 µM [falling, single point] | 29.1 µM [falling, single point]
4 | CCOc1ccc(NS(=O)(=O)c2ccc(C(=O)NC3CCC(O)CC3)cc2)cc1 (stereo unspecified) |  |  | 5.8 µM [falling, single point]
5 | CCCCN(CCCC)NC(=O)c1ccccc1 | 19.2 | 0.517 µM [falling, single point] | 0.517 µM [falling, single point]
6 | Cc1cc(C)cc(N=C2NC(=O)/C(=C/c3cccs3)S2)c1 |  | 6.51 µM [rising, single point] | 
7 | CCOc1ccc(-c2nc(N)nc(C)c2-c2ccc(Cl)cc2)c(O)c1 | -41.7 | 16.4 µM [falling, single point] | 18.4 µM [falling, single point]
8 | COc1ccccc1N1CCN(CCC(=O)Nc2ccc3c(c2)OCO3)CC1 |  | 0.058 µM [rising, full curve, poor fit] | 0.058 µM [rising, full curve, poor fit]
9 | CCC(=O)Nc1c2c(nn1-c1cccc(Cl)c1)CSC2 | 44.5 | 5.8 µM [rising, full curve] | 5.17 µM [rising, full curve]
10 | CSCCC(Nc1nc2ccccc2s1)C(=O)O (stereo unspecified) | -88.7 | 23.1 µM [falling, partial curve, poor fit] | 0.206 µM [falling, full curve, poor fit]
11 | CCOc1ccc(CCNC(=O)CSc2cc(=O)n(C)c3cc(Cl)ccc23)cc1OCC | 21.5 | 0.146 µM [rising, full curve, poor fit] | 0.146 µM [rising, full curve, poor fit]
12 | O=C(Nc1cccc(S(=O)(=O)N2CCOCC2)c1)c1cn(-c2ccccc2)nc1-c1ccc(F)cc1 | -1.18 |  | 6.51 µM [rising, single point]
13 | CSc1nc2c(c(=O)[nH]c(=O)n2C)n1Cc1ccc(Cl)cc1 | -19 |  | 0.146 µM [rising, full curve, poor fit]
14 | O=C(O)c1cc2sccc2s1 | -4.35 |  | 
15 | Cc1ccc(CS(=O)Cc2ccc(C(=O)NC3CCC(C)CC3)o2)cc1 (stereo unspecified) | -1.24 |  | 
16 | CCOC(=O)c1cn(-c2ccc([N+](=O)[O-])cc2)c2cc(Cl)c([N+](=O)[O-])cc2c1=O | -12.1 |  | 0.0231 µM [falling, full curve, poor fit]
17 | O=C(O)CCn1nnc(-c2ccccc2)n1 | 33.1 | 32.6 µM [rising, single point] | 29.1 µM [rising, single point]
18 | COc1ccccc1N1CCN(CC(O)COc2c(OC)cccc2OC)CC1 (stereo unspecified) | -22.4 |  | 0.58 µM [falling, full curve]

Structures shown so far containing a Cl atom, in the order listed:
Row | Structure (SMILES) | cell number change [%] | AC50 [1] | AC50 [2]
7 | CCOc1ccc(-c2nc(N)nc(C)c2-c2ccc(Cl)cc2)c(O)c1 | -41.7 | 16.4 µM [falling, single point] | 18.4 µM [falling, single point]
9 | CCC(=O)Nc1c2c(nn1-c1cccc(Cl)c1)CSC2 | 44.5 | 5.8 µM [rising, full curve] | 5.17 µM [rising, full curve]
11 | CCOc1ccc(CCNC(=O)CSc2cc(=O)n(C)c3cc(Cl)ccc23)cc1OCC | 21.5 | 0.146 µM [rising, full curve, poor fit] | 0.146 µM [rising, full curve, poor fit]
13 | CSc1nc2c(c(=O)[nH]c(=O)n2C)n1Cc1ccc(Cl)cc1 | -19 |  | 0.146 µM [rising, full curve, poor fit]
16 | CCOC(=O)c1cn(-c2ccc([N+](=O)[O-])cc2)c2cc(Cl)c([N+](=O)[O-])cc2c1=O | -12.1 |  | 0.0231 µM [falling, full curve, poor fit]

Further entries.

Row | Structure (SMILES) | cell number change [%] | AC50 [1] | AC50 [2]
19 | Cc1ccc(/C=N/N=C2/NC(=O)CS2)o1 |  |  | 0.291 µM [falling, single point]
20 | COc1ccc(C)cc1-n1nnnc1SCc1cn2ccsc2n1 | -1.9 |  | 
21 | O=C(NC(=S)NC1CCS(=O)(=O)C1)c1ccccc1 (stereo unspecified) | 34.1 | 7.31 µM [rising, partial curve] | 0.651 µM [rising, full curve, poor fit]
22 | Cc1ccc(F)cc1NC(=O)COC(=O)COc1ccc(C#N)cc1 | -15.7 |  | 0.184 µM [falling, full curve, poor fit]
23 | Cc1cc(Nc2ccccc2)c2c([N+](=O)[O-])c(C)cc(C)c2n1 | -25.1 |  | 1.16 µM [falling, full curve]
24 | OCC(O)/C=N/Nc1nc(N2CCCCC2)nc(N2CCCCC2)n1 (stereo unspecified) | -35.5 | 23.1 µM [falling, single point] | 18.4 µM [falling, single point]
25 | Cc1ccc(S(=O)(=O)Nc2ccc3c(c2)OCCO3)cc1 |  |  | 4.61 µM [falling, single point]
26 | O=S(=O)(c1ccc(Nc2ccc3c(c2)OCO3)nc1)N1CCOCC1 | 14.1 |  | 
27 | COc1cc([N+](=O)[O-])cc2sc(NC(=O)C3CC3)nc12 | 31.5 |  | 
28 | COc1ccc(NC(=O)CC2C(=O)N(c3ccc(F)cc3)C(=S)N2NC(=O)c2ccc(Cl)cc2)cc1 (stereo unspecified) | -40.9 | 32.6 µM [falling, single point] | 0.103 µM [falling, full curve, poor fit]
29 | O=C(CN1CCN(S(=O)(=O)c2ccccc2)CC1)Nc1ccccc1C(=O)NC1CC1 | 25.8 |  | 0.326 µM [rising, full curve, poor fit]
30 | CC(C)N1CCc2c(sc(NC(=O)c3ccc(S(=O)(=O)N4CCc5ccccc54)cc3)c2C(N)=O)C1 | -10.7 |  | 29.1 µM [falling, single point]
31 | Cc1ccc(S(=O)(=O)Nc2ccc3c(c2)nc(CN2CCCC2)n3C)cc1 |  | 0.259 µM [rising, full curve] | 0.259 µM [rising, full curve]
32 | COc1ccc(NC(=O)CCN2CCN(S(=O)(=O)c3ccc(Cl)cc3)CC2)cc1 |  |  | 5.17 µM [rising, single point]
33 | CCOC(=O)C1CCN(CCC(=O)Nc2ccc(F)cc2)CC1 | 24.8 |  | 
34 | CCOC(=O)C(C(=O)OCC)C(Nc1ccccc1)c1ccccc1 (stereo unspecified) | -9.84 |  | 25.9 µM [falling, single point]
35 | COc1cc(Br)c(CC(=O)NC2CC2)cc1OC | -4.05 |  | 
36 | CN1CCN(Cn2cc(/C=C/C(=O)c3ccccc3)c3ccccc32)CC1 | -88.8 | 16.4 µM [falling, partial curve, poor fit] | 23.1 µM [falling, single point]
